# Measured values: the supplement of paper PMC8728848
# Some of the results follow.
# How the values were obtained:
# Assay in all cases: glycan array binding signal (z-score within array); higher = stronger binding
# Details in all cases: glycan notation: IUPAC condensed, linker removed; mutation: D21K
# [1] = biological target: Fuc(a1-2)Gal(b1-4)[Fuc(a1-3)]GlcNAc
# Method in brief: (§1)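 The binding signal is a Z-score computed within each array. Data were drawn from 3228 arrays in the Consortium for Functional Glycomics database, restricted to those with a known protein sequence. Scores were averaged over arrays of the same protein sequence at different concentrations or buffers, and over linkers, and negative values can be taken as non-binding.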
# [2] = biological target: Fuc(a1-2)Gal(b1-4)[Fuc(a1-3)]GlcNAc(b1-2)Man(a1-3)[Fuc(a1-2)Gal(b1-4)[Fuc(a1-3)]GlcNAc(b1-2)Man(a1-6)]Man(b1-4)GlcNAc(b1-4)[Fuc(a1-6)]GlcNAc
# Method in brief: as §1
# [3] = biological target: Fuc(a1-2)Gal(b1-4)[Fuc(a1-3)]GlcNAc(b1-2)[Fuc(a1-2)Gal(b1-4)[Fuc(a1-3)]GlcNAc(b1-4)]Man(a1-3)[Fuc(a1-2)Gal(b1-4)[Fuc(a1-3)]GlcNAc(b1-2)Man(a1-6)]Man(b1-4)GlcNAc(b1-4)GlcNAc
# Method in brief: as §1
# [4] = biological target: Fuc(a1-2)Gal(b1-4)[Fuc(a1-3)]GlcNAc(b1-3)Gal(b1-4)[Fuc(a1-3)]GlcNAc
# Method in brief: as §1
# [5] = biological target: Fuc(a1-2)Gal(b1-4)[Fuc(a1-3)]GlcNAc(b1-3)Gal(b1-4)[Fuc(a1-3)]GlcNAc(b1-3)Gal(b1-4)[Fuc(a1-3)]GlcNAc
# Method in brief: as §1
# [6] = biological target: Fuc(a1-2)Gal(b1-4)[Fuc(a1-3)]GlcNAc(b1-3)GalNAc
# Method in brief: as §1
# [7] = biological target: Fuc(a1-2)Gal(b1-4)[Fuc(a1-3)]GlcNAc(b1-3)[Neu5Ac(a2-6)Gal(b1-4)GlcNAc(b1-6)]Gal(b1-4)Glc
# Method in brief: as §1
# [8] = biological target: Fuc(a1-2)Gal3S(b1-4)GlcNAc
# Method in brief: as §1
# [9] = biological target: Fuc(a1-2)Gal6S(b1-3)GlcNAc
# Method in brief: as §1
# [10] = biological target: Fuc(a1-2)Gal6S(b1-3)GlcNAc6S
# Method in brief: as §1
# Fuc(a1-2)Gal6S(b1-4)Glc = biological target: Fuc(a1-2)Gal6S(b1-4)Glc
# Method in brief: as §1
# [11] = biological target: Fuc(a1-2)Gal6S(b1-4)Glc6S
# Method in brief: as §1
# Fuc(a1-2)[Gal(a1-3)]Gal = biological target: Fuc(a1-2)[Gal(a1-3)]Gal
# Method in brief: as §1
# [12] = biological target: Fuc(a1-2)[Gal(a1-3)]Gal(b1-3)GalNAc
# Method in brief: as §1
# [13] = biological target: Fuc(a1-2)[Gal(a1-3)]Gal(b1-3)GalNAc(b1-3)Gal(a1-4)Gal(b1-4)Glc
# Method in brief: as §1
# [14] = biological target: Fuc(a1-2)[Gal(a1-3)]Gal(b1-3)GlcNAc
# Method in brief: as §1
# [15] = biological target: Fuc(a1-2)[Gal(a1-3)]Gal(b1-3)GlcNAc(b1-2)Man(a1-3)[Fuc(a1-2)[Gal(a1-3)]Gal(b1-3)GlcNAc(b1-2)Man(a1-6)]Man(b1-4)GlcNAc(b1-4)GlcNAc
# Method in brief: as §1
# [16] = biological target: Fuc(a1-2)[Gal(a1-3)]Gal(b1-3)GlcNAc(b1-2)Man(a1-3)[Fuc(a1-2)[Gal(a1-3)]Gal(b1-3)GlcNAc(b1-2)Man(a1-6)]Man(b1-4)GlcNAc(b1-4)[Fuc(a1-6)]GlcNAc
# Method in brief: as §1
# [17] = biological target: Fuc(a1-2)[Gal(a1-3)]Gal(b1-3)GlcNAc(b1-3)GalNAc
# Method in brief: as §1
# [18] = biological target: Fuc(a1-2)[Gal(a1-3)]Gal(b1-3)GlcNAc(b1-6)GalNAc
# Method in brief: as §1
# [19] = biological target: Fuc(a1-2)[Gal(a1-3)]Gal(b1-4)Glc
# Method in brief: as §1
# [20] = biological target: Fuc(a1-2)[Gal(a1-3)]Gal(b1-4)GlcNAc
# Method in brief: as §1
# [21] = biological target: Fuc(a1-2)[Gal(a1-3)]Gal(b1-4)GlcNAc(b1-2)Man
# Method in brief: as §1
# [22] = biological target: Fuc(a1-2)[Gal(a1-3)]Gal(b1-4)GlcNAc(b1-2)Man(a1-3)[Fuc(a1-2)[Gal(a1-3)]Gal(b1-4)GlcNAc(b1-2)Man(a1-6)]Man(b1-4)GlcNAc(b1-4)GlcNAc
# Method in brief: as §1
# [23] = biological target: Fuc(a1-2)[Gal(a1-3)]Gal(b1-4)GlcNAc(b1-2)Man(a1-3)[Fuc(a1-2)[Gal(a1-3)]Gal(b1-4)GlcNAc(b1-2)Man(a1-6)]Man(b1-4)GlcNAc(b1-4)[Fuc(a1-6)]GlcNAc
# Method in brief: as §1
# [24] = biological target: Fuc(a1-2)[Gal(a1-3)]Gal(b1-4)GlcNAc(b1-3)GalNAc
# Method in brief: as §1
# [25] = biological target: Fuc(a1-2)[Gal(a1-3)]Gal(b1-4)GlcNAc(b1-3)[Fuc(a1-2)[Gal(a1-3)]Gal(b1-4)GlcNAc(b1-6)]GalNAc
# Method in brief: as §1
# [26] = biological target: Fuc(a1-2)[Gal(a1-3)]Gal(b1-4)GlcNAc(b1-6)GalNAc
# Method in brief: as §1
# [27] = biological target: Fuc(a1-2)[Gal(a1-3)]Gal(b1-4)[Fuc(a1-3)]Glc
# Method in brief: as §1
# [28] = biological target: Fuc(a1-2)[Gal(a1-3)]Gal(b1-4)[Fuc(a1-3)]GlcNAc
# Method in brief: as §1
# [29] = biological target: Fuc(a1-2)[Gal(a1-3)]Gal(b1-4)[Fuc(a1-3)]GlcNAc(b1-3)GalNAc
# Method in brief: as §1
# [30] = biological target: Fuc(a1-2)[Gal(a1-4)]Gal(b1-4)GlcNAc
# Method in brief: as §1
# [31] = biological target: Fuc(a1-2)[GalNAc(a1-3)]Gal
# Method in brief: as §1
# [32] = biological target: Fuc(a1-2)[GalNAc(a1-3)]Gal(b1-3)GalNAc(a1-3)[Fuc(a1-2)]Gal(b1-4)GlcNAc
# Method in brief: as §1
# [33] = biological target: Fuc(a1-2)[GalNAc(a1-3)]Gal(b1-3)GalNAc(b1-3)Gal(a1-4)Gal(b1-4)Glc
# Method in brief: as §1
# [34] = biological target: Fuc(a1-2)[GalNAc(a1-3)]Gal(b1-3)GlcNAc
# Method in brief: as §1
# [35] = biological target: Fuc(a1-2)[GalNAc(a1-3)]Gal(b1-3)GlcNAc(b1-2)Man(a1-3)[Fuc(a1-2)[GalNAc(a1-3)]Gal(b1-3)GlcNAc(b1-2)Man(a1-6)]Man(b1-4)GlcNAc(b1-4)GlcNAc
# Method in brief: as §1
# [36] = biological target: Fuc(a1-2)[GalNAc(a1-3)]Gal(b1-3)GlcNAc(b1-2)Man(a1-3)[Fuc(a1-2)[GalNAc(a1-3)]Gal(b1-3)GlcNAc(b1-2)Man(a1-6)]Man(b1-4)GlcNAc(b1-4)[Fuc(a1-6)]GlcNAc
# Method in brief: as §1
binder,measurement,setting,value
KILRGVCKKIMRTFLRRISKKILTGKK [C7A (Sus scrofa)],glycan array binding signal (z-score),[1],-1.12
same,glycan array binding signal (z-score),[2],-0.252
same,glycan array binding signal (z-score),[3],0.494
same,glycan array binding signal (z-score),[4],-1.58
same,glycan array binding signal (z-score),[5],-0.735
same,glycan array binding signal (z-score),[6],0.148
same,glycan array binding signal (z-score),[7],0.652
same,glycan array binding signal (z-score),[8],-1.47
same,glycan array binding signal (z-score),[9],0.866
same,glycan array binding signal (z-score),[10],1.91
same,glycan array binding signal (z-score),Fuc(a1-2)Gal6S(b1-4)Glc,-0.829
same,glycan array binding signal (z-score),[11],1.15
same,glycan array binding signal (z-score),Fuc(a1-2)[Gal(a1-3)]Gal,0.73
same,glycan array binding signal (z-score),[12],-0.24
same,glycan array binding signal (z-score),[13],0.004
same,glycan array binding signal (z-score),[14],-0.689
same,glycan array binding signal (z-score),[15],-0.537
same,glycan array binding signal (z-score),[16],0.82
same,glycan array binding signal (z-score),[17],-0.507
same,glycan array binding signal (z-score),[18],1.37
same,glycan array binding signal (z-score),[19],0.215
same,glycan array binding signal (z-score),[20],0.504
same,glycan array binding signal (z-score),[21],-1.8
same,glycan array binding signal (z-score),[22],0.866
same,glycan array binding signal (z-score),[23],-0.338
same,glycan array binding signal (z-score),[24],-1.37
same,glycan array binding signal (z-score),[25],-0.287
same,glycan array binding signal (z-score),[26],0.121
same,glycan array binding signal (z-score),[27],-0.38
same,glycan array binding signal (z-score),[28],1.3
same,glycan array binding signal (z-score),[29],-0.079
same,glycan array binding signal (z-score),[30],1.25
same,glycan array binding signal (z-score),[31],-0.22
same,glycan array binding signal (z-score),[32],-0.103
same,glycan array binding signal (z-score),[33],-0.093
same,glycan array binding signal (z-score),[34],1.29
same,glycan array binding signal (z-score),[35],-0.902
same,glycan array binding signal (z-score),[36],0.931

# A different layout for part of the listing above.
binder	measurement	setting	value
KILRGVCKKIMRTFLRRISKKILTGKK [C7A (Sus scrofa)]	glycan array binding signal (z-score)	[21]	-1.8
same	glycan array binding signal (z-score)	[22]	0.866
same	glycan array binding signal (z-score)	[23]	-0.338
same	glycan array binding signal (z-score)	[24]	-1.37
same	glycan array binding signal (z-score)	[25]	-0.287
same	glycan array binding signal (z-score)	[26]	0.121
same	glycan array binding signal (z-score)	[27]	-0.38
